In article doi:10.1101/2022.10.17.512524:
These are yes or no findings as the source states them, for the method shown. Binding seen in cells or lysates may run through a third protein. Some entries that bind do so weakly or less than the wild type. For part of these data: Tags and fused reporters may be left off the sequences shown.

Sequences of proteins named here, by UniProt entry; tags and fusion partners are left off.
UniProt P50851: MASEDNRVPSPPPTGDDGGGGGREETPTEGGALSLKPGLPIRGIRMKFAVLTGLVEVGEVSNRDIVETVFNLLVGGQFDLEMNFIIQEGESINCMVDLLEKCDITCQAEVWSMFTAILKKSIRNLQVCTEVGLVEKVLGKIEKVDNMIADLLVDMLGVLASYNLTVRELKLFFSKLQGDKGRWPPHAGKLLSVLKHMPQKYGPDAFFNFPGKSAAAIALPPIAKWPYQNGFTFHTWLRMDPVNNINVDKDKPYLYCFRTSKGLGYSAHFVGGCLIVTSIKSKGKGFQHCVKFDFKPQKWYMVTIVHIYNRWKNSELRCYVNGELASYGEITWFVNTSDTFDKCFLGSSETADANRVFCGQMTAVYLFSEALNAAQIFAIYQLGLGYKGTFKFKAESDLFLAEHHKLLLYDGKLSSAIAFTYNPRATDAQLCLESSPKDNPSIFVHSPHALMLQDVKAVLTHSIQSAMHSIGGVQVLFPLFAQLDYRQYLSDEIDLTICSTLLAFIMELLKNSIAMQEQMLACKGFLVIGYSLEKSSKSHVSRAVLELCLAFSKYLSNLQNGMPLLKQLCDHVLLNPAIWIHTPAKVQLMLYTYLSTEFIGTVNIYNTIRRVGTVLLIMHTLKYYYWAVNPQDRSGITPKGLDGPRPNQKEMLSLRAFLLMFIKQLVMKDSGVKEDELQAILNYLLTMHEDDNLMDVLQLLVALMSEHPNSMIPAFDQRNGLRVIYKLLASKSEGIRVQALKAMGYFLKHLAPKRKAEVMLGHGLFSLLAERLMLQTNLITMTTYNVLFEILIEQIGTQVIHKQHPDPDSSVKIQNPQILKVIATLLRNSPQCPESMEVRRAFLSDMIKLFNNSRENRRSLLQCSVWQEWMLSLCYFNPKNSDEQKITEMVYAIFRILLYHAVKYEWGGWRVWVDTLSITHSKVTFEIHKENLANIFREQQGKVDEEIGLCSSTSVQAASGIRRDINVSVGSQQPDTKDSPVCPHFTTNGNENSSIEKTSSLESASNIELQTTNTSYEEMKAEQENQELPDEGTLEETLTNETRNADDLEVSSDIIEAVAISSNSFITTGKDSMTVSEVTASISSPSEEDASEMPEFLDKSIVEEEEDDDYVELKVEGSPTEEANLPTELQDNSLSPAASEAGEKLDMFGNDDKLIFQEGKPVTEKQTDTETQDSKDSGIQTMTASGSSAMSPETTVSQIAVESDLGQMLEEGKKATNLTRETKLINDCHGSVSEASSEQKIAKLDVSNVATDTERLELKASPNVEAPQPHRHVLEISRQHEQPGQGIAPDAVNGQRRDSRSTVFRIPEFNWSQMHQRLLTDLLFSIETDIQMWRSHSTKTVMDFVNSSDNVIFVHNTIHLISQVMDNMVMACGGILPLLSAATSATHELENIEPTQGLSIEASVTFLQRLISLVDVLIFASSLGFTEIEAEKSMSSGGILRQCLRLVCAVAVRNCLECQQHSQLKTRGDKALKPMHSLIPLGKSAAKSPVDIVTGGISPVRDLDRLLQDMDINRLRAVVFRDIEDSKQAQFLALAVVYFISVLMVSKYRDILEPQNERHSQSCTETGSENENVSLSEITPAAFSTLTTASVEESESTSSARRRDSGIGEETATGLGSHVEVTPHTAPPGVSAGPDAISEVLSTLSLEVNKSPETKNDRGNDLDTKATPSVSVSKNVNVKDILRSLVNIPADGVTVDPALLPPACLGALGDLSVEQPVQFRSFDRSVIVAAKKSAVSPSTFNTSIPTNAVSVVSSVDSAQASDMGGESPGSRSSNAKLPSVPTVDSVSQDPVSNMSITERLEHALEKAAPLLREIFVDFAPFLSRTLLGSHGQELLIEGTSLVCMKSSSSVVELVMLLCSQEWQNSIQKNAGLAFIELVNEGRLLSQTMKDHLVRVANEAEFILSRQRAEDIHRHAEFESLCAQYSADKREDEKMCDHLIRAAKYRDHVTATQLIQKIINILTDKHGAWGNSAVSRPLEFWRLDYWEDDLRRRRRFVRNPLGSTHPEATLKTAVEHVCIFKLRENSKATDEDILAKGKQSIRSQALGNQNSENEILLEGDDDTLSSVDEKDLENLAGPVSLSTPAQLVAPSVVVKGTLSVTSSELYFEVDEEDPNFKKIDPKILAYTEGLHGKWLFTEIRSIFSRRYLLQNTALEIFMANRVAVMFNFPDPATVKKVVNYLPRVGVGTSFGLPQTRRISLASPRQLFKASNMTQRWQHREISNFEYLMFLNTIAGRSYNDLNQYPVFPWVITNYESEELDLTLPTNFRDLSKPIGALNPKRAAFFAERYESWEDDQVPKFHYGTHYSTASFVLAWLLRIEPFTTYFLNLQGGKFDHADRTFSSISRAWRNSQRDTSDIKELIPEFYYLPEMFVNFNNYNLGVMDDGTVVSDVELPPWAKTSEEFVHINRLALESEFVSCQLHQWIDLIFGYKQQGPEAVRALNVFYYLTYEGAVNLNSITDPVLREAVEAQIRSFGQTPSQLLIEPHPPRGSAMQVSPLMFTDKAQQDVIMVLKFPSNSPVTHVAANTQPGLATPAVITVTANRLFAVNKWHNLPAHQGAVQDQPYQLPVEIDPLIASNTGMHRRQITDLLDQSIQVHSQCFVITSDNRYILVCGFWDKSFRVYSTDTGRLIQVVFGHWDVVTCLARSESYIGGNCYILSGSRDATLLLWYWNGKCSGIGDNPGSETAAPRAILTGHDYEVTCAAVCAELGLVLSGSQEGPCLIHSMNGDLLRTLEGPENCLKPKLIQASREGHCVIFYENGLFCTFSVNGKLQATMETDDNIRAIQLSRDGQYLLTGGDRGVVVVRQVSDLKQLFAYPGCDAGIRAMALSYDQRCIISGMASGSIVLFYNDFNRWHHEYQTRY
UniProt Q6ZNE5: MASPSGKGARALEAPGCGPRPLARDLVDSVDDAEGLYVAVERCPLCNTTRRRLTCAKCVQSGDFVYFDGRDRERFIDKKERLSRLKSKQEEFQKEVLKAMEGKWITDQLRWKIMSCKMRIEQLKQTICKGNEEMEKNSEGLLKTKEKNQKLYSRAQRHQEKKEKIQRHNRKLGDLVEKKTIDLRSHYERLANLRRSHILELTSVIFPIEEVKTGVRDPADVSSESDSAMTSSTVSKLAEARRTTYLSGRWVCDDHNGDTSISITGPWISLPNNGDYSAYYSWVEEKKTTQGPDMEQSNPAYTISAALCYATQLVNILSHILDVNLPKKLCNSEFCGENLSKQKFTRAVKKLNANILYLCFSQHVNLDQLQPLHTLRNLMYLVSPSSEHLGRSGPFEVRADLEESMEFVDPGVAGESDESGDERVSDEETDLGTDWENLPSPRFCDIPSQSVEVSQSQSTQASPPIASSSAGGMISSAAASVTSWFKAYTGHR
UniProt Q14457: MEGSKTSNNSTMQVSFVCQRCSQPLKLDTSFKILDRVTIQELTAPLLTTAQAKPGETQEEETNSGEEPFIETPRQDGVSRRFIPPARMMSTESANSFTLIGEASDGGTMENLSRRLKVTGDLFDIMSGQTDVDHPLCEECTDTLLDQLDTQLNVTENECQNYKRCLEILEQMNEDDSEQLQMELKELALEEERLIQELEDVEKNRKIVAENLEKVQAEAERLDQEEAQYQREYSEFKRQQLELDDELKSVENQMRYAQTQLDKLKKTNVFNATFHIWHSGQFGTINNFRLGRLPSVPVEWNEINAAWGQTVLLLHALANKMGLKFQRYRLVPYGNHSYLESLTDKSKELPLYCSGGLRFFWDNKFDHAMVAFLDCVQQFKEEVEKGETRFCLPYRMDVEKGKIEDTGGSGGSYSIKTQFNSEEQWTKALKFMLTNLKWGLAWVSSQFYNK
UniProt Q99570: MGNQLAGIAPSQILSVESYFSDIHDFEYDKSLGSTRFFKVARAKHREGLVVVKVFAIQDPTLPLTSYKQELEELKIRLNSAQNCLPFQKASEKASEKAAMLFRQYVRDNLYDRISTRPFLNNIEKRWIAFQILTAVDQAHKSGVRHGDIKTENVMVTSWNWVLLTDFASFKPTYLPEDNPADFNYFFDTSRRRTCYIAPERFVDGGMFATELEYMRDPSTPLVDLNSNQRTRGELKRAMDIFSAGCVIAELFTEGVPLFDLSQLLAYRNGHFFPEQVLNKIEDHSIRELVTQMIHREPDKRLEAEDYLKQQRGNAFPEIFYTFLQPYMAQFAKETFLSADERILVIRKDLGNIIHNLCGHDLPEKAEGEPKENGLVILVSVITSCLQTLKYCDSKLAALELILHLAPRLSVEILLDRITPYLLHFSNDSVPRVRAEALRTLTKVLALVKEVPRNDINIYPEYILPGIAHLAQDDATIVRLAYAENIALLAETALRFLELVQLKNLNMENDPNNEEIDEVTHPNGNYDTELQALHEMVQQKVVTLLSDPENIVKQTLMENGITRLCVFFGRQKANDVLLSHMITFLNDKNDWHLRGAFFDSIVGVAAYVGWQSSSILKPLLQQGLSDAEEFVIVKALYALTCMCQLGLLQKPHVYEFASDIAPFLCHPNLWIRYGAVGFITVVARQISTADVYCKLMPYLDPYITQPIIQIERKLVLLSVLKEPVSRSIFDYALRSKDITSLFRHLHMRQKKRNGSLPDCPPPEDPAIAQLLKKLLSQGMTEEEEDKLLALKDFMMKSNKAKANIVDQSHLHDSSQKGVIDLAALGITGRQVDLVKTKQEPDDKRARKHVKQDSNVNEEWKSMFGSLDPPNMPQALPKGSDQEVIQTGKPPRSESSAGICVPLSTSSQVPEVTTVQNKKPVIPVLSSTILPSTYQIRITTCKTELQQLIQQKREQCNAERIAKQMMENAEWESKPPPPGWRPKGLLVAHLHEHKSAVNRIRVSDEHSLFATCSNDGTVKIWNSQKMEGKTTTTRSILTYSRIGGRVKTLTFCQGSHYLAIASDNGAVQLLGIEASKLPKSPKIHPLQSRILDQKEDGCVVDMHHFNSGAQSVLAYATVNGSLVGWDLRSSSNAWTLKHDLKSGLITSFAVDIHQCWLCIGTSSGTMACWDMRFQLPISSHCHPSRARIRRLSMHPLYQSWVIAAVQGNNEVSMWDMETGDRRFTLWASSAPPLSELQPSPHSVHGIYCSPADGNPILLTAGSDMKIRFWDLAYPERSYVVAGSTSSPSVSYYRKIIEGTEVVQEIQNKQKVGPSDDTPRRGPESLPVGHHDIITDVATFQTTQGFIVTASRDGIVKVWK

How the values were obtained:
[1] = molecular target: Human LRBA full length tagged to Myc-DDK (human) (UniProt P50851); experiment: co-IP + proximity ligation
[2] = molecular target: lipopolysaccharide-responsive beige-like anchor protein (LRBA), endogenous (human (endogenous in HEK293T and LCL)) (UniProt P50851); experiment: co-IP + proximity ligation
[3] = molecular target: Human LRBA full length tagged to Myc-DDK (human) (UniProt P50851); experiment: co-IP
[4] = molecular target: lipopolysaccharide-responsive beige-like anchor protein (LRBA), endogenous (human (endogenous in HEK293T and LCL)) (UniProt P50851); experiment: proximity ligation
[5] = molecular target: lipopolysaccharide-responsive beige-like anchor protein (LRBA), endogenous (human (endogenous in HEK293T and LCL)) (UniProt P50851); experiment: co-IP
[6] = molecular target: Human LRBA full length tagged to Myc-DDK (human) (UniProt P50851); experiment: co-IP; remark: listed apart in the source

AuTophaGy Related protein 14L (ATG14L) (from UniProt Q6ZNE5 1-492)
binding [1]: no binding

Beclin-1 (from UniProt Q14457 1-450)
binding [2]: no binding

his-tagged PIK3R4 (from UniProt Q99570 1-1358)
binding [3]: binds

phosphoinositide 3-kinase regulatory subunit 4 (PIK3R4), endogenous (from UniProt Q99570 1-1358)
binding [4]: binds
binding [5]: binds

B1: GFP-tagged FYVE And Coiled-Coil Domain Autophagy Adaptor 1 (FYCO1) (protein, UniProt Q9BQS8 1-1478)
chain: MASTNAESQLQRIIRDLQDAVTELSKEFQEAGEPITDDSTSLHKFSYKLEYLLQFDQKEKATLLGNKKDYWDYFCACLAKVKGANDGIRFVKSISELRTSLGKGRAFIRYSLVHQRLADTLQQCFMNTKVTSDWYYARSPFLQPKLSSDIVGQLYELTEVQFDLASRGFDLDAAWPTFARRTLTTGSSAYLWKPPSRSSSMSSLVSSYLQTQEMVSNFDLNSPLNNEALEGFDEMRLELDQLEVREKQLRERMQQLDRENQELRAAVSQQGEQLQTERERGRTAAEDNVRLTCLVAELQKQWEVTQATQNTVKELQTCLQGLELGAAEKEEDYHTALRRLESMLQPLAQELEATRDSLDKKNQHLASFPGWLAMAQQKADTASDTKGRQEPIPSDAAQEMQELGEKLQALERERTKVEEVNRQQSAQLEQLVKELQLKEDARASLERLVKEMAPLQEELSGKGQEADQLWRRLQELLAHTSSWEEELAELRREKKQQQEEKELLEQEVRSLTRQLQFLETQLAQVSQHVSDLEEQKKQLIQDKDHLSQQVGMLERLAGPPGPELPVAGEKNEALVPVNSSLQEAWGKPEEEQRGLQEAQLDDTKVQEGSQEEELRQANRELEKELQNVVGRNQLLEGKLQALQADYQALQQRESAIQGSLASLEAEQASIRHLGDQMEASLLAVRKAKEAMKAQMAEKEAILQSKEGECQQLREEVEQCQQLAEARHRELRALESQCQQQTQLIEVLTAEKGQQGVGPPTDNEARELAAQLALSQAQLEVHQGEVQRLQAQVVDLQAKMRAALDDQDKVQSQLSMAEAVLREHKTLVQQLKEQNEALNRAHVQELLQCSEREGALQEERADEAQQREEELRALQEELSQAKCSSEEAQLEHAELQEQLHRANTDTAELGIQVCALTVEKERVEEALACAVQELQDAKEAASREREGLERQVAGLQQEKESLQEKLKAAKAAAGSLPGLQAQLAQAEQRAQSLQEAAHQELNTLKFQLSAEIMDYQSRLKNAGEECKSLRGQLEEQGRQLQAAEEAVEKLKATQADMGEKLSCTSNHLAECQAAMLRKDKEGAALREDLERTQKELEKATTKIQEYYNKLCQEVTNRERNDQKMLADLDDLNRTKKYLEERLIELLRDKDALWQKSDALEFQQKLSAEERWLGDTEANHCLDCKREFSWMVRRHHCRICGRIFCYYCCNNYVLSKHGGKKERCCRACFQKLSEGPGSPDSSGSGTSQGEPSPALSPASPGPQATGGQGANTDYRPPDDAVFDIITDEELCQIQESGSSLPETPTETDSLDPNAAEQDTTSTSLTPEDTEDMPVGQDSEICLLKSGELMIKVPLTVDEIASFGEGSRELFVRSSTYSLIPITVAEAGLTISWVFSSDPKSISFSVVFQEAEDTPLDQCKVLIPTTRCNSHKENIQGQLKVRTPGIYMLIFDNTFSRFVSKKVFYHLTVDRPVIYDGSDFL
binding [6]: binds
